Laboratory results: paper PMC6401474
Where two headings read alike, the source gives them in different places. These are yes or no findings as the source states them, for the method shown. Binding seen in cells or lysates may run through a third protein. Some binding calls cover weakened binding; strength is not graded here. For part of these data: Where a sequence is shown, tags or fusion partners need not be part of it.

Sequences of proteins named here, by UniProt entry; tags and fusion partners are left off.
UniProt P15682: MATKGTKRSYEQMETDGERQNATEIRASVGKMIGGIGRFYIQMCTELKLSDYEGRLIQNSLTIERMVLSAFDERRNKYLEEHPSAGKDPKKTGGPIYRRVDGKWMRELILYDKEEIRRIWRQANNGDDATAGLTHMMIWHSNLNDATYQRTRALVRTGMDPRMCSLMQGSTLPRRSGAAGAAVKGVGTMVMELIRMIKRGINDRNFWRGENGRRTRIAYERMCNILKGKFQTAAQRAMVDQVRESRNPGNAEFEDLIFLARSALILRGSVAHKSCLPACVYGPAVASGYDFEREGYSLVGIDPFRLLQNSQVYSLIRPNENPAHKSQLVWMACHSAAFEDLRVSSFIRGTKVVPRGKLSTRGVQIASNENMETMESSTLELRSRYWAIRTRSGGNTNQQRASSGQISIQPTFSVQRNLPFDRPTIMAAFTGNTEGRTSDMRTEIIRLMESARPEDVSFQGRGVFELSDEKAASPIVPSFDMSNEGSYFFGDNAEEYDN
UniProt Q8IYM9: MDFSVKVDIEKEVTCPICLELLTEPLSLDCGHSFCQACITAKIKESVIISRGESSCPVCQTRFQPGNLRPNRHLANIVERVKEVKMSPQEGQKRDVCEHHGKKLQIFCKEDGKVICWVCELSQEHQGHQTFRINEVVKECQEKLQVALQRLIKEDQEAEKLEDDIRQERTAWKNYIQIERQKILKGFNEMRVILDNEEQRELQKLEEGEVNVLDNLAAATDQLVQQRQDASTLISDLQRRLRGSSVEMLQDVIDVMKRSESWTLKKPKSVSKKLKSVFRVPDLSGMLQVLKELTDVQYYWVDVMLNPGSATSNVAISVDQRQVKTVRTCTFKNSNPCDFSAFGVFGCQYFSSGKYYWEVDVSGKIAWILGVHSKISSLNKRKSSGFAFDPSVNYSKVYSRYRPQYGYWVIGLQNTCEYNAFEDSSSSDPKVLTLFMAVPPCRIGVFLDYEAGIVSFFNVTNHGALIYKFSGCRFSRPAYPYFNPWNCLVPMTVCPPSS

Key:
[1] = target: NP-GlucC and GlucC-NP (influenza A virus (strain not stated for the Gluc fusions)) (UniProt P15682); assay: split reporter
[2] = target: NP-GlucC and GlucC-NP (influenza A virus (strain not stated for the Gluc fusions)) (UniProt P15682); assay: split reporter; remark: listed apart in the source
[3] = target: Flag-NP (influenza A/WSN/33 virus) (UniProt P15682); assay: co-IP

With TRIM22 (from UniProt Q8IYM9 1-498) the binding [1] was “binds”.

B1: TRIM14-GlucN and GlucN-TRIM14 (protein, UniProt Q14142 1-442)
chain: MAGAATGSRTPGRSELVEGCGWRCPEHGDRVAELFCRRCRRCVCALCPVLGAHRGHPVGLALEAAVHVQKLSQECLKQLAIKKQQHIDNITQIEDATEKLKANAESSKTWLKGKFTELRLLLDEEEALAKKFIDKNTQLTLQVYREQADSCREQLDIMNDLSNRVWSISQEPDPVQRLQAYTATEQEMQQQMSLGELCHPVPLSFEPVKSFFKGLVEAVESTLQTPLDIRLKESINCQLSDPSSTKPGTLLKTSPSPERSLLLKYARTPTLDPDTMHARLRLSADRLTVRCGLLGSLGPVPVLRFDALWQVLARDCFATGRHYWEVDVQEAGAGWWVGAAYASLRRRGASAAARLGCNRQSWCLKRYDLEYWAFHDGQRSRLRPRDDLDRLGVFLDYEAGVLAFYDVTGGMSHLHTFRATFQEPLYPALRLWEGAISIPRLP
With B1 the binding [2] was “binds”.

B2: HA-TRIM14 (protein, UniProt Q14142 1-442)
chain: MAGAATGSRTPGRSELVEGCGWRCPEHGDRVAELFCRRCRRCVCALCPVLGAHRGHPVGLALEAAVHVQKLSQECLKQLAIKKQQHIDNITQIEDATEKLKANAESSKTWLKGKFTELRLLLDEEEALAKKFIDKNTQLTLQVYREQADSCREQLDIMNDLSNRVWSISQEPDPVQRLQAYTATEQEMQQQMSLGELCHPVPLSFEPVKSFFKGLVEAVESTLQTPLDIRLKESINCQLSDPSSTKPGTLLKTSPSPERSLLLKYARTPTLDPDTMHARLRLSADRLTVRCGLLGSLGPVPVLRFDALWQVLARDCFATGRHYWEVDVQEAGAGWWVGAAYASLRRRGASAAARLGCNRQSWCLKRYDLEYWAFHDGQRSRLRPRDDLDRLGVFLDYEAGVLAFYDVTGGMSHLHTFRATFQEPLYPALRLWEGAISIPRLP
In the case of B2, the binding [3] is reported as “binds”.
